# Assay results taken from paper PMC7862700.
# Chains of the proteins cited; added tags and fusions are not shown. Lines headed by an entry give the natural chain unless they say otherwise; changes in a name come on top.
# UniProt Q01892: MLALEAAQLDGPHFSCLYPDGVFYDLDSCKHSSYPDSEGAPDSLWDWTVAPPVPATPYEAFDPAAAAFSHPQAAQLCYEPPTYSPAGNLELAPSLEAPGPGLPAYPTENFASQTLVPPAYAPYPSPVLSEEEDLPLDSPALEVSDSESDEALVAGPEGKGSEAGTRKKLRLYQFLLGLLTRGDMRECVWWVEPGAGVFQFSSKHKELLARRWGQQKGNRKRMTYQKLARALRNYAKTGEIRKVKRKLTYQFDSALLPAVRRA
# The list shows a part of the results, in another mix than the full data. At the low end of the ranking the order means little.
# Legend:
# Assay in all cases: DAPPL (digital affinity profiling via proximity ligation, sequencing)
# Details in all cases: 10 mM Tris-HCl pH 7.5, 50 mM NaCl, 1 mM DTT, 4% glycerol, room temperature, 30 min; GST-TFs on glutathione beads, 16-mer random dsDNA library, 0.1% …; high values mean tight binding; double strand, one strand shown; scale: fold enrichment (6-mer frequency, TF over GST control)
# [1] = molecular target: T1, ETV3L (UniProt Q6ZN32)
# T1 sequence: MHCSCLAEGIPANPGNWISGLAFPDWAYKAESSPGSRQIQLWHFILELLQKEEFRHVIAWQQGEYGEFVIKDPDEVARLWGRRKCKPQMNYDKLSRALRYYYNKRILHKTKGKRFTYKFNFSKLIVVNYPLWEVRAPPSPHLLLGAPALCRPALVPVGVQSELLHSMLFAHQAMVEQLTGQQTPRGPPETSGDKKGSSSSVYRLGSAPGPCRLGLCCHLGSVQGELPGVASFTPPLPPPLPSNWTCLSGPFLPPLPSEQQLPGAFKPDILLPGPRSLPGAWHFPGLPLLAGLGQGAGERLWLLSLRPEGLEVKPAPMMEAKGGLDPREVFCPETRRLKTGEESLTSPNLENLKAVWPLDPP
# [2] = molecular target: T2, EHF (UniProt Q9NZC4)
# T2 sequence: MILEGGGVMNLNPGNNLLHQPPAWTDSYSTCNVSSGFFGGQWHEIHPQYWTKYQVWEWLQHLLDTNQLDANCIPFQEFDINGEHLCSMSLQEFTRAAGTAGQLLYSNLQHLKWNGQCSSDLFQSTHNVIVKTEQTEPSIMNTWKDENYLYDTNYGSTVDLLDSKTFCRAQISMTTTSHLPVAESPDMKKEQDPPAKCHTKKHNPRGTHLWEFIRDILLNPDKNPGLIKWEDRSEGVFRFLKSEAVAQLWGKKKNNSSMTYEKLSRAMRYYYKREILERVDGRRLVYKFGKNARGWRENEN
# [3] = molecular target: SPIB (UniProt Q01892)
sequence,measurement,setting,value
TCACAG,binding signal,[1],1.13
AAGCTC,binding signal,[1],1.2
ACTCTC,binding signal,[1],1.49
AACAGG,binding signal,[1],1.15
GATACG,binding signal,[1],1.1
CTAAAC,binding signal,[1],1.18
TTTCAG,binding signal,[1],1.31
ATGGCC,binding signal,[1],1.32
TCACGA,binding signal,[1],1.04
TTTATT,binding signal,[1],1.44
CGATAA,binding signal,[1],1.09
ATCGTC,binding signal,[1],1.09
AGCTAA,binding signal,[1],1.05
TGGTAT,binding signal,[1],1.37
TTTGAG,binding signal,[1],0.971
ACTTAA,binding signal,[1],1.16
TCCGGA,binding signal,[1],2.42
CTGAGC,binding signal,[1],1.14
CGTCCC,binding signal,[1],1.3
ACATCC,binding signal,[1],2.46
ATTGCG,binding signal,[1],1.29
GAACAT,binding signal,[1],1.01
GTCCCT,binding signal,[1],1.16
TCTGCA,binding signal,[1],1.42
CATCGA,binding signal,[1],1.21
GACCTG,binding signal,[1],1.33
AGATCC,binding signal,[1],1.13
AATCAT,binding signal,[1],1.18
ATCCGC,binding signal,[2],1.82
same,binding signal,[1],1.84
TCTTTG,binding signal,[2],1.21
same,binding signal,[1],1.24
TGTCTC,binding signal,[2],1.22
same,binding signal,[1],1.3
TCTAAG,binding signal,[1],1.17
TCGCCT,binding signal,[2],1.34
same,binding signal,[1],1.23
CTTTCC,binding signal,[2],2.05
same,binding signal,[1],1.76
CAATCA,binding signal,[2],0.994
same,binding signal,[1],1.2
CTTCAG,binding signal,[2],1.34
same,binding signal,[1],1.26
CACTCG,binding signal,[2],1.18
same,binding signal,[1],1.11
TGCCCG,binding signal,[2],1.27
same,binding signal,[1],1.16
CCGCTA,binding signal,[2],1.41
same,binding signal,[1],1.27
TTATAG,binding signal,[2],1.25
same,binding signal,[1],1.28
CCCCAT,binding signal,[2],1.27
same,binding signal,[1],1.29
GTTCTA,binding signal,[2],1.12
same,binding signal,[1],1.2
GCCTTG,binding signal,[2],1.24
same,binding signal,[1],1.34
TTTAAA,binding signal,[2],1.21
same,binding signal,[1],1.35
TTCATA,binding signal,[2],1.18
same,binding signal,[1],1.23
ATGGTT,binding signal,[2],1.28
same,binding signal,[1],1.36
TCAATA,binding signal,[2],1.14
same,binding signal,[1],1.24
GCTCAG,binding signal,[1],1.16
CTTGCC,binding signal,[2],1.33
same,binding signal,[1],1.31
TCATGC,binding signal,[2],1.15
same,binding signal,[1],1.12
TACTAA,binding signal,[2],1.3
same,binding signal,[1],1.23
GCTCCT,binding signal,[2],1.41
same,binding signal,[1],1.61
TATAAG,binding signal,[2],1.1
same,binding signal,[1],1.21
GTCTTT,binding signal,[1],1.27
TGCACG,binding signal,[2],1.22
same,binding signal,[1],1.1
CTCAGG,binding signal,[2],0.987
same,binding signal,[1],0.96
ACCAAC,binding signal,[2],1.18
same,binding signal,[1],1.13
ACCTAC,binding signal,[2],1.21
same,binding signal,[1],1.26
CCATTC,binding signal,[2],1.07
same,binding signal,[1],1.06
GTTAAC,binding signal,[1],1.14
TGTGCT,binding signal,[2],1.11
same,binding signal,[1],1.12
CGCTAC,binding signal,[1],1.17
TATTCG,binding signal,[2],1.11
same,binding signal,[1],1.16
CTGGAT,binding signal,[2],1.32
same,binding signal,[1],1.5
CTCTGG,binding signal,[2],1.35
same,binding signal,[1],1.45
GGTTTA,binding signal,[2],1.08
same,binding signal,[1],0.967
CTGCCT,binding signal,[2],1.33
same,binding signal,[3],1.21
CTTGTC,binding signal,[2],1.19
same,binding signal,[3],1.23
CTCCTA,binding signal,[2],1.25
same,binding signal,[3],1.4
GTTACG,binding signal,[2],1.03
same,binding signal,[3],0.958
TTGCGG,binding signal,[3],1.2
CTAGGT,binding signal,[2],1.09
same,binding signal,[3],1.13
CGAGCT,binding signal,[2],1.13
same,binding signal,[3],1.04
TAACCT,binding signal,[3],1.31
CTTTTA,binding signal,[3],1.35
AAACCA,binding signal,[2],1.17
same,binding signal,[3],1.16
TGACTC,binding signal,[2],1.27
same,binding signal,[3],1.42
TCTTAG,binding signal,[2],1.21
same,binding signal,[3],1.09
GATTCC,binding signal,[2],1.15
same,binding signal,[3],1.16
CATCTT,binding signal,[2],1.2
same,binding signal,[3],1.21
TTCGAA,binding signal,[3],1.12
TAAACG,binding signal,[2],1.17
same,binding signal,[3],1.19
GTTTAC,binding signal,[2],1.14
same,binding signal,[3],1.09
CTAACG,binding signal,[2],1.13
same,binding signal,[3],1.11
TTAGAA,binding signal,[2],1.14
same,binding signal,[3],1.03
CGATCC,binding signal,[2],1.22
same,binding signal,[3],1.22
ACTCTT,binding signal,[2],1.2
same,binding signal,[3],1.25
TGTGGA,binding signal,[2],0.999
same,binding signal,[3],1.1
CGGCTT,binding signal,[3],1.18
TGTGTT,binding signal,[2],1.09
same,binding signal,[3],0.95
TGACTT,binding signal,[3],1.52
ACGATC,binding signal,[2],0.956
same,binding signal,[3],1.08
ATTACG,binding signal,[3],1.18
CGAATA,binding signal,[3],1.11
GCATTC,binding signal,[2],1.07
same,binding signal,[3],1.12
TATCCG,binding signal,[2],2.48
same,binding signal,[3],2.8
CGATTC,binding signal,[3],1.24
GGCTCA,binding signal,[2],1.23
same,binding signal,[3],1.24
TTAGCG,binding signal,[3],1.13
CGCTCC,binding signal,[3],1.36
CTTGAC,binding signal,[2],1.14
same,binding signal,[3],1.19
GACATC,binding signal,[2],1.35
same,binding signal,[3],1.3
TTAAGT,binding signal,[2],1.15
same,binding signal,[3],1.2
CAAGGT,binding signal,[3],0.926
ATACGT,binding signal,[3],1.13
GATTTC,binding signal,[3],1.72
AAGGTA,binding signal,[3],1.05
CTACTC,binding signal,[3],1.59
GTCCTA,binding signal,[3],1.18
CCTTTC,binding signal,[3],1.7
ACCGTC,binding signal,[3],1.09
CTAATT,binding signal,[3],1.37
ATCATG,binding signal,[3],1.14
TGTTAT,binding signal,[3],1.31
TAACAT,binding signal,[3],1.27
TTGAAC,binding signal,[3],1.12
TTGTCC,binding signal,[3],1.34
CACACT,binding signal,[3],1.14
ATTAGC,binding signal,[3],1.03
TGACCT,binding signal,[3],1.56

# 7 records drawn at random from the list so far:
sequence,measurement,setting,value
TAACAT,binding signal,[3],1.27
GTCCTA,binding signal,[3],1.18
CTTGTC,binding signal,[3],1.23
ACTCTT,binding signal,[2],1.2
CTTTCC,binding signal,[1],1.76
CGATTC,binding signal,[3],1.24
GCTCAG,binding signal,[1],1.16

# Another view of some results above:
sequence | measurement | setting | value
TCACGA | binding signal | [1] | 1.04
CTTGCC | binding signal | [2] | 1.33
CTGGAT | binding signal | [1] | 1.5
ACTCTT | binding signal | [2] | 1.2
CGCTCC | binding signal | [3] | 1.36
CACACT | binding signal | [3] | 1.14
